Values quoted from earlier work as cited in patent US9775881B2, “Methods of treating mesothelioma by administration of compounds comprising FGFR1 ECD” (Five Prime Therapeutics, Inc., priority 2013, dated 2017).
Like-named read-outs stand apart in the source and are kept apart here. At least one compound was matched to its structure with a doubt left.

Test system: Caki-2 tumor xenografts
Conditions: Caki-2 tumor xenografts in CB-17 SCID mice, cited from earlier work

Cc1ccc(Nc2nccc(N(C)c3ccc4c(C)n(C)nc4c3)n2)cc1S(N)(=O)=O [pazopanib]
tumor inhibition (10 mg/kg pazopanib): 90%
tumor inhibition (30 mg/kg pazopanib): 77%
tumor inhibition (100 mg/kg pazopanib): 99%
